Reference: the supplement of paper PMC3334620
Whole data set: some 33,000 sequences, median “E-score (-0.5 to 0.5)” near -0.0034, cut for the highest 2% near 0.25. The list shows a part of the results.

What follows are sequences tested against T1, Yap3 (UniProt P38749) (assay: PBM E-score (8-mer binding enrichment) (E-score (-0.5 to 0.5)); higher = stronger / more preferred TF binding). Settings: protein concentration: 100 nM; construct: GST-full length.
T1 sequence: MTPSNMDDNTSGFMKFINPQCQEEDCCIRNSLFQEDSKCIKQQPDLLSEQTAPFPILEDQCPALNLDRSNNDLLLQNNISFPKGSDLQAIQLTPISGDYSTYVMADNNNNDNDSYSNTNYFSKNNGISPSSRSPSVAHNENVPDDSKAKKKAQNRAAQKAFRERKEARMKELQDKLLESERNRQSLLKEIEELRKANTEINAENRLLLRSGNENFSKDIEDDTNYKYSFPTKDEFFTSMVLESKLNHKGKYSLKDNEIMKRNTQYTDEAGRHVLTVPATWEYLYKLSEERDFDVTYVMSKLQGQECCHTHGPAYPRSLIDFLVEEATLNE
Method in brief: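 Each ungapped eight-base word and its reverse complement, pooled, received an E-score from the Universal PBM Analysis Suite. Underlying scans, normalised with masliner, recorded fluorescent anti-GST bound to GST-tagged yeast transcription factors. These were applied at about 100-200 nM to universal all-10-mer Agilent arrays double-stranded by primer extension.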

Row | Sequence | PBM E-score
1 | GTGTCTCA | -0.0322
2 | CACAGAAC | -0.136
3 | CTAGGGAC | -0.0709
4 | CGTCCTAG | -0.14
5 | AAAGACTA | -0.056
6 | TATTGTGA | 0.106
7 | AGCTTCGC | -0.223
8 | ACTAGACA | 0.0606
9 | CGTAGATC | 0.0115
10 | ATCTAATA | 0.191
11 | CCCCATCA | -0.111
12 | CAGCTATC | -0.126
13 | CCGTACGC | 0.0362
14 | ATGTATGC | 0.109
15 | ATCCCCAT | -0.0121
16 | AAGCCGGT | -0.0593
17 | GCGGGAGC | -0.229
18 | CAAGGGAG | -0.229
19 | CAAAGGTG | -0.0389
20 | GGCCAGCA | -0.166
21 | GGCAGGCC | -0.291
22 | CCCCCCGC | -0.361
23 | GCTGTGCA | -0.205
24 | CTTTCCTC | -0.0643
25 | GCGACCCA | -0.283

Row | Sequence | PBM E-score
26 | AATCCTAT | 0.228
27 | CCAGGTTC | -0.317
28 | CCATCAGC | -0.00182
29 | CCCAATCC | -0.14
30 | GGAGACAA | 0.127
31 | AGTGGTAC | 0.0484
32 | ATGATCCG | -0.0916
33 | GTTCCGGA | -0.156
34 | CCTGCCAG | -0.25
35 | ACGTTCCG | -0.1
36 | AGAGGATA | 0.0206
37 | AGAATAGG | 0.172
38 | ATGCAGCG | -0.175
39 | AAAACGAC | -0.00219
40 | AAGTCGGA | 0.0731
41 | AATCAGAT | 0.0727
42 | GAAGGAAC | -0.158
43 | TGCCGCCA | 0.0161
44 | GAATTTCC | 0.277
45 | ATCAGGCC | -0.144
46 | GTCATATA | 0.163
47 | GAGCGCAC | -0.12
48 | AGCTCGAG | -0.0903
49 | CGTATACG | -0.0611
50 | AACTAGAC | 0.0874

Row | Sequence | PBM E-score
51 | ACAAACTC | -0.00445
52 | AAAAATAC | 0.14
53 | ACCTACGG | -0.301
54 | CGGAAGAG | -0.0921
55 | GGATATGA | 0.0846
56 | GTGAACTA | 0.123
57 | CTCTCGAA | 0.0266
58 | CTCTACCA | -0.0394
59 | AGTAGTGA | 0.0679
60 | AGAGGGAT | -0.218
61 | GGCTATCA | -0.0472
62 | AGGGAGGG | -0.234
63 | CACTCGAA | -0.0436
64 | AAGAGTTG | 0.0294
65 | AGTATGCA | -0.0365
66 | GCGGACAA | 0.196
67 | CAGTCTTC | -0.0179
68 | AAGTGAAT | 0.245
69 | TAGTTACA | -0.0858
70 | CAGAGGCG | -0.136
71 | ACCAATCG | 0.223
72 | GTTCCAAC | -0.00516
73 | ACTCGCTG | -0.114
74 | ACCTCAGG | -0.227
75 | AGAATGAC | 0.0866

Row | Sequence | PBM E-score
76 | CTCGCCAG | -0.151
77 | CACCCGGC | -0.411
78 | GTCCGGAC | 0.0517
79 | CCCCGTCG | -0.309
80 | AGACACAT | -0.079
81 | AAAAGAAC | 0.136
82 | CTCGATAA | 0.0958
83 | ATAAAGGA | -0.117
84 | GCACAGAC | 0.00931
85 | CGAAGGTA | 0.00763
86 | GTAGCTGA | -0.0966
87 | ACATTTGG | -0.00729
88 | CTGGTTGA | -0.256
89 | GGAAGCTA | -0.0915
90 | AGTCCGGA | -0.0488
91 | AGTAGCGA | 0.0288
92 | CCAATAAA | 0.218
93 | GACCTGTA | -0.0803
94 | AAAATAAT | 0.224
95 | CGGTATGC | -0.17
96 | CAGTATGA | 0.143
97 | ACGGCATG | 0.0157
98 | AGACACAG | -0.148
99 | CACCACGA | 0.0157
100 | GTTAACCA | 0.145

Row | Sequence | PBM E-score
101 | CACAGTAA | 0.265
102 | GCCCGCCC | -0.3
103 | CTTTAAGA | 0.0783
104 | GAGCGACA | 0.0223
105 | GCTGAGCA | -0.07
106 | GAAAGTGC | -0.131
107 | ATGTGACG | -0.0689
108 | ACCGTTCA | -0.0456
109 | ATGGGTGG | -0.0448
110 | ACGCAGAC | -0.0392
111 | ACTCACAT | 0.0827
112 | ATTATTCC | 0.248
113 | GTGCAAGA | 0.152
114 | ACAAGTAA | 0.0548
115 | CGCCAGAC | -0.126
116 | CAGACTCC | -0.222
117 | CTTTATAC | 0.114
118 | GAATACCC | 0.00523
119 | ATGACCTA | -0.00491
120 | CGCGCCCC | -0.181
121 | CCGTCATC | -0.204
122 | ATGATTCA | 0.0934
123 | GAGCTGCA | -0.145
124 | AAGTTCGT | -0.00106
125 | AGATTAGA | -0.0346

Row | Sequence | PBM E-score
126 | AGGCTGGA | -0.252
127 | CATCCGCC | -0.0593
128 | ACACGATC | -0.0222
129 | ACTAATCT | 0.00634
130 | AACAGGAG | -0.0488
131 | CGCGTGAC | 0.012
132 | GTGGTACA | -0.117
133 | TACGAGAA | 0.115
134 | CCGCATCG | -0.325
135 | TCGCGAAA | 0.114
136 | GCTTTTAA | -0.0608
137 | TGAAATAA | 0.21
138 | CTAAAATC | -0.00289
139 | GCCGACTA | 0.0231
140 | CTGGTCTA | -0.0194
141 | AGTAGAAT | 0.207
142 | ACCGCTTG | 0.0284
143 | CAACGGGA | 0.0834
144 | ACGTTCTA | -0.0668
145 | AAGGCAAA | 0.159
146 | AGATTTCC | 0.182
147 | CGACATCC | -0.178
148 | CCATGACG | 0.0295
149 | GCCGGAGA | -0.0884
150 | CTGCGCTA | -0.108

Row | Sequence | PBM E-score
151 | GCCTCCAA | -0.0329
152 | AGACGAGC | -0.172
153 | CATCTGAG | -0.0685
154 | AGGGGTGC | -0.199
155 | AGGCACAC | -0.162
156 | ACGCAGCA | -0.0281
157 | GATAAGCA | 0.138
158 | CCTCGAGG | 0.102
159 | CTTCCGGC | -0.0541
160 | AGAAGATA | 0.234
161 | CGTTTATA | 0.28
162 | CCATTAAA | 0.0581
163 | CTCCGCAA | -0.247
164 | CACTGGCC | -0.159
165 | AGCTTCGG | -0.0969
166 | ATGATTGC | 0.199
167 | TGATGGCA | 0.0241
168 | CACTATCG | 0.052
169 | CGATACTA | 0.212
170 | CCAGGTTA | 0.00966
171 | GTTCAAAA | -0.0132
172 | GAATCGGC | 0.0864

In another format: entries from further up.
Row,Sequence,PBM E-score
7,AGCTTCGC,-0.223
13,CCGTACGC,0.0362
54,CGGAAGAG,-0.0921
103,CTTTAAGA,0.0783

Reprinted at random: 3 records from the list
Row | Sequence | PBM E-score
158 | CCTCGAGG | 0.102
168 | CACTATCG | 0.052
169 | CGATACTA | 0.212
